# The supplement of paper PMC12067093, “Discovery and optimisation of a covalent ligand for TRIM25 and its application to targeted protein ubiquitination” (Chemical Science, 2025)
# The chains behind the UniProt entries cited, without tags or fusion partners. Where a name states a change or a piece, a line headed by the entry shows the natural chain unless it says otherwise.
# UniProt Q15814: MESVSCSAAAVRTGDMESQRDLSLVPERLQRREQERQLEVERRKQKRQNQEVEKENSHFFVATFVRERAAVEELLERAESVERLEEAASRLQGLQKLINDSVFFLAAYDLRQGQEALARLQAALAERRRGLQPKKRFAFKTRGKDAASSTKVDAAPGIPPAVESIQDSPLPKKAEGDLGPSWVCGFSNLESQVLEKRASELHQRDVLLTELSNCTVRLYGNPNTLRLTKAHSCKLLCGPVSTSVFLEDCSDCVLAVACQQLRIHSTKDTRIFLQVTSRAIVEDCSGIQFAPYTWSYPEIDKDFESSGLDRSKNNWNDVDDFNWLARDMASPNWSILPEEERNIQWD
# UniProt O15056: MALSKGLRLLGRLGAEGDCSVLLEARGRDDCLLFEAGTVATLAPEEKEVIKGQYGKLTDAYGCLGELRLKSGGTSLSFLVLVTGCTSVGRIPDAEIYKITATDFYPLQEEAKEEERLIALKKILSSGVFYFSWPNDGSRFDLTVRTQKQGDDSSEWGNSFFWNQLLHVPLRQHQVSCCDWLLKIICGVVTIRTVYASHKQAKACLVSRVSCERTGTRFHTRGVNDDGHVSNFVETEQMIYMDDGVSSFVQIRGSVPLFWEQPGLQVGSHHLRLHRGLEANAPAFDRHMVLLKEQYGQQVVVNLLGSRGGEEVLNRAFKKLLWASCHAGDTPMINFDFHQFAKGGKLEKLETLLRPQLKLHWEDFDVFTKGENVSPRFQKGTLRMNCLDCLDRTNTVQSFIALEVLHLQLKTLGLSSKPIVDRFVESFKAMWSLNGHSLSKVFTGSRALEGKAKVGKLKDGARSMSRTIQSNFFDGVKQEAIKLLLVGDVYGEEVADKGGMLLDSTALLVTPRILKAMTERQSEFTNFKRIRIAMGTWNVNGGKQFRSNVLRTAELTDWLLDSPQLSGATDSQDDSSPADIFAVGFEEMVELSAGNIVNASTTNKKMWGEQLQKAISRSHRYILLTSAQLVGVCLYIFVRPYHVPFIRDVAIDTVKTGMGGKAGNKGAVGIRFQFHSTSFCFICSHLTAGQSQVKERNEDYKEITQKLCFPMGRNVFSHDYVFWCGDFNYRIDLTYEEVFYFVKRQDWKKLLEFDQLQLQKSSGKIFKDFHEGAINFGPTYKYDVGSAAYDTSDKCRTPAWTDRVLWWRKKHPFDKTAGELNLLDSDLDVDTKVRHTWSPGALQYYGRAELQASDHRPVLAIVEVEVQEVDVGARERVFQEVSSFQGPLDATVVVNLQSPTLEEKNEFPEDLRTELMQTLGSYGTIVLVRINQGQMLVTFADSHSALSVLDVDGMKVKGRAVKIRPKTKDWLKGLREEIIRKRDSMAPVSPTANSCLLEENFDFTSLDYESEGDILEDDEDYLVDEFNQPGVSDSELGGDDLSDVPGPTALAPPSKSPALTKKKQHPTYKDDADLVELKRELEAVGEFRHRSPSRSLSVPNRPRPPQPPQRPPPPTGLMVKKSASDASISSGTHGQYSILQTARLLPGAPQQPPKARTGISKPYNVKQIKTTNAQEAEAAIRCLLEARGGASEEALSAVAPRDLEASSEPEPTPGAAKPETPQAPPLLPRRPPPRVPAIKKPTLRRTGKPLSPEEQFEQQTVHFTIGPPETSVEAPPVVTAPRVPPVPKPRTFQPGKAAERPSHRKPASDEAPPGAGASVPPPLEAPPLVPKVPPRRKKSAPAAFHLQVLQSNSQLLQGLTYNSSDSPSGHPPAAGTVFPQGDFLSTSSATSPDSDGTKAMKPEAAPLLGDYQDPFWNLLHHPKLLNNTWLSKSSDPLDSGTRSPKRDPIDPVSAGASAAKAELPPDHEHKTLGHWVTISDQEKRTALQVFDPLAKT
# UniProt P26639: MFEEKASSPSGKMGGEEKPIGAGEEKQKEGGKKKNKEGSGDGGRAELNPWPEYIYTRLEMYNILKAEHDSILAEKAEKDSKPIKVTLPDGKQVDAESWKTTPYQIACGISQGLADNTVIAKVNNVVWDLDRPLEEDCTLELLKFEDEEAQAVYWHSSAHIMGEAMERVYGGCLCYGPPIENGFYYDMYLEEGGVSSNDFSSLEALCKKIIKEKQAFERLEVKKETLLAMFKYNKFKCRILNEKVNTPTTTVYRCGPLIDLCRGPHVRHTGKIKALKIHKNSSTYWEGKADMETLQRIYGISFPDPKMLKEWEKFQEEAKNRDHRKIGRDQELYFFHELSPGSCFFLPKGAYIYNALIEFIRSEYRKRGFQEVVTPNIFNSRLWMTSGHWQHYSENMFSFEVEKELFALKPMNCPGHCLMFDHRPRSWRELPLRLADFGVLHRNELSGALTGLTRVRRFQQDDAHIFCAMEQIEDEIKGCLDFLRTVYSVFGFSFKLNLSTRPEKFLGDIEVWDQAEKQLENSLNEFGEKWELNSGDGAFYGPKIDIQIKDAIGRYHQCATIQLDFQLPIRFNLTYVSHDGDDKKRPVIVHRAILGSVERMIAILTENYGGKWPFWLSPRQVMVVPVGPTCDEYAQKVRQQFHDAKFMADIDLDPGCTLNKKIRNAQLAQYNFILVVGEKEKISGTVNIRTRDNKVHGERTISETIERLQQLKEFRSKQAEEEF
# UniProt Q12788: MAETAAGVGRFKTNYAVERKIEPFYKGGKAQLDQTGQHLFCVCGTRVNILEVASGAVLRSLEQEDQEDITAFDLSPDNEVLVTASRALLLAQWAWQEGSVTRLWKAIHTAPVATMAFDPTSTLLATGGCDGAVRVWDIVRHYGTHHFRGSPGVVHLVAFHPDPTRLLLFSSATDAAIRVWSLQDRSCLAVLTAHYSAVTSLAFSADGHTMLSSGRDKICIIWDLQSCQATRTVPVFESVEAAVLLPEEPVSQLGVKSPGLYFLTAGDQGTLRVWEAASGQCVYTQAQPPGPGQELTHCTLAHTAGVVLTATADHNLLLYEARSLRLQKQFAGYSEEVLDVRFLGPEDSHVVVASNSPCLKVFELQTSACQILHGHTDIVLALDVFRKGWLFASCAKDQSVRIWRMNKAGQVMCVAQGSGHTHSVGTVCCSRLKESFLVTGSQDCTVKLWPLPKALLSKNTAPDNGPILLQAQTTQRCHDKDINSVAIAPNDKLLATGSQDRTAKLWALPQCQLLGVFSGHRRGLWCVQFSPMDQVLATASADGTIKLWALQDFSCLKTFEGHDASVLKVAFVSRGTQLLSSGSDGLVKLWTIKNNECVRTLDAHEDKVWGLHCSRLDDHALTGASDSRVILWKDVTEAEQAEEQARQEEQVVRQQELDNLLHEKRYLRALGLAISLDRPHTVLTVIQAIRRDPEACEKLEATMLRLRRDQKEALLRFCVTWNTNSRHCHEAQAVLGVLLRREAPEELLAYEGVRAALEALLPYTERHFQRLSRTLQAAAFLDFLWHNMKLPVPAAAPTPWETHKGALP
# UniProt Q86TI0: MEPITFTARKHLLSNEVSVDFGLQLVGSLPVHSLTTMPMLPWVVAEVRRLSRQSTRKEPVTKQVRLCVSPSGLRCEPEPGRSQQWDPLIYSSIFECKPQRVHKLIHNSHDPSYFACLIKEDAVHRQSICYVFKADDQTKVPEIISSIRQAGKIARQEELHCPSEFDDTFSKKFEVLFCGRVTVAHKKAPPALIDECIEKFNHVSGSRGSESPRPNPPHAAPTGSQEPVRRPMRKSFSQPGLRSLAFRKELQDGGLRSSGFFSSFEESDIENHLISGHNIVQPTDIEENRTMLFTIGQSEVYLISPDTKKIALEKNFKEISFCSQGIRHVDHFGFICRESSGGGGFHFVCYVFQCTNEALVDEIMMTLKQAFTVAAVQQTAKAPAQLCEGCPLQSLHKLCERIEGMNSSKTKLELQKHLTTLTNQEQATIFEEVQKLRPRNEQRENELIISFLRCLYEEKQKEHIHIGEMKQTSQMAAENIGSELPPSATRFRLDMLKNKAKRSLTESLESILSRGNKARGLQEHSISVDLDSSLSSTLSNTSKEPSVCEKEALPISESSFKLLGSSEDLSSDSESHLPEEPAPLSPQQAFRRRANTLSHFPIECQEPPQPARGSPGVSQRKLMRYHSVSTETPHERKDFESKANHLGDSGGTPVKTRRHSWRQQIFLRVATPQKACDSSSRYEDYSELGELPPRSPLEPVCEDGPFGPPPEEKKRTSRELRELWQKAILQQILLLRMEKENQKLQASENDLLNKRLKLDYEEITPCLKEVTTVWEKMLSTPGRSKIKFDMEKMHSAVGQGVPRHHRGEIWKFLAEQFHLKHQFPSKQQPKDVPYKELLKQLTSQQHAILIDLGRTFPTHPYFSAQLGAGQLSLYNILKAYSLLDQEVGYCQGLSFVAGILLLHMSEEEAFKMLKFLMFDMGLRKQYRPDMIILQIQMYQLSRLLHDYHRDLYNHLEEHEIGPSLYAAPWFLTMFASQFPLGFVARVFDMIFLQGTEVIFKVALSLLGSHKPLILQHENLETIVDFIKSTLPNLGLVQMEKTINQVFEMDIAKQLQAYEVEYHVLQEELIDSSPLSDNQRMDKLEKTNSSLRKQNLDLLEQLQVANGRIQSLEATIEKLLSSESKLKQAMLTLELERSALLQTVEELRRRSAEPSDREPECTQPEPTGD
# UniProt Q6P1N9: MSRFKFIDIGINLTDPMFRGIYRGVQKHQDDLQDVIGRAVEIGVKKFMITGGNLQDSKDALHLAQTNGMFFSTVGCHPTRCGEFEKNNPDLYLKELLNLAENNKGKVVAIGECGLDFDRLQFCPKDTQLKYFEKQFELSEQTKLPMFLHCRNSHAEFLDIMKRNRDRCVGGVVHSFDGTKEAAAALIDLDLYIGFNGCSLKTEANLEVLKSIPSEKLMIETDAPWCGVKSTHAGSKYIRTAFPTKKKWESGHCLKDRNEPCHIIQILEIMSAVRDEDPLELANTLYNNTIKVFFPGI
# UniProt Q9BTW9: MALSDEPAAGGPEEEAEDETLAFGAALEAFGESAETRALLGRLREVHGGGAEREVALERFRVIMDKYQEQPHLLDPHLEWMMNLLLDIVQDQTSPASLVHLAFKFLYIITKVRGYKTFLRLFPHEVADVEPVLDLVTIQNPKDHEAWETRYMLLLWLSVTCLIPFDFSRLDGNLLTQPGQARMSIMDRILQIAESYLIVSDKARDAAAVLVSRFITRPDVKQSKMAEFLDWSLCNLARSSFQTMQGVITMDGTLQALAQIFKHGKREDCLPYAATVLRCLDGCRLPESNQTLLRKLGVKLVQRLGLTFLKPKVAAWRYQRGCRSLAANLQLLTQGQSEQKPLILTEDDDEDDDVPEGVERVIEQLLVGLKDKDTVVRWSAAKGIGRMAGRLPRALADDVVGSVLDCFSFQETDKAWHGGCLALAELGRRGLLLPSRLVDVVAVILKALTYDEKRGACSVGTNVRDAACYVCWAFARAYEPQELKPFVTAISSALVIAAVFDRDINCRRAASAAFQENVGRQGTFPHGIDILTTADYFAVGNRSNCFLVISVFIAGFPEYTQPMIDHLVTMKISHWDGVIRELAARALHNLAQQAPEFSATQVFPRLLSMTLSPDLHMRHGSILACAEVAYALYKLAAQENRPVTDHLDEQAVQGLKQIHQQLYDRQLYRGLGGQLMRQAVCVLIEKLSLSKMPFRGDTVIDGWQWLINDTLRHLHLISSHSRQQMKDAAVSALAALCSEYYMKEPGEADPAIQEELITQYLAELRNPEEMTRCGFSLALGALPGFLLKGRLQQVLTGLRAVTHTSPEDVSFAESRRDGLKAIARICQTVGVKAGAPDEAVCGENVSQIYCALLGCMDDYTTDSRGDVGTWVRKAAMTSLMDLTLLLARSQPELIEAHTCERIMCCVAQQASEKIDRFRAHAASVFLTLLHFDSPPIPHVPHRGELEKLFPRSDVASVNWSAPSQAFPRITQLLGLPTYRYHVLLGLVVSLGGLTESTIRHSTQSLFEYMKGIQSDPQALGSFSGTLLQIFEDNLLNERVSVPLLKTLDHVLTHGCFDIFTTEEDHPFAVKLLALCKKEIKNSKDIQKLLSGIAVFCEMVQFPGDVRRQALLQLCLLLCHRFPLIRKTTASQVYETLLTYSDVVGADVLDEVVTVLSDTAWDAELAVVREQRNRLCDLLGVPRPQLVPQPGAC
# UniProt Q9BXI6: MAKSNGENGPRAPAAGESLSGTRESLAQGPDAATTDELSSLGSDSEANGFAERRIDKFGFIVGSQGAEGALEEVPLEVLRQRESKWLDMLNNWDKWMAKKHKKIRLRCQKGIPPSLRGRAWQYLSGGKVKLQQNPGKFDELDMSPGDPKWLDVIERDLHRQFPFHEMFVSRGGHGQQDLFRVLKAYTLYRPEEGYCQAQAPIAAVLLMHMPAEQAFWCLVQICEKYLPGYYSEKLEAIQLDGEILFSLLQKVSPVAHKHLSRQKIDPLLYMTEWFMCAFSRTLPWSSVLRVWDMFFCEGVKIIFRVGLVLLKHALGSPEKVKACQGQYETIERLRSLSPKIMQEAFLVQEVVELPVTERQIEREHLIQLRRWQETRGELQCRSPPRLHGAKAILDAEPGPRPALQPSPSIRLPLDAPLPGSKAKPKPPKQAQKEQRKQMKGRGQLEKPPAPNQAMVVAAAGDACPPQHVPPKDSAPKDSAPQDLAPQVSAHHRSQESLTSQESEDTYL
# Some of the results follow.
# Compound: CC1Cc2ccccc2N1C(=O)C1CCCN(C1)C(=O)CCl (mixture of isomers) [TRIM25 ligand 11 (diastereomer mixture)]
# Assay: probe-labelled cysteine peptide fold change vs DMSO (competition) (log2 fold change); higher = less target engagement (more negative = stronger competition)
# Details: THP-1, incubation time: 4 h
# 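Note: competitive chemoproteomic profiling in live THP-1 cells with an iodoacetamide desthiobiotin (IA-DTB) probe, comparing probe-labelled peptide intensities in compound-treated cells against DMSO-treated controls.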
Target,probe-labelled cysteine peptide fold change (10 µM),probe-labelled cysteine peptide fold change (50 µM)
TBCC_Q15814_6_MESVSCSAAAVR (UniProt Q15814),0.458,0.287
TAPBPL_Q9BX59_39_AVDVVLDCFLAK (UniProt Q9BX59),-0.0571,-0.0405
SYNJ2_O15056_63_LTDAYGCLGELR (UniProt O15056),-0.0112,0.0612
TARS_P26639_467_FQQDDAHIFCAMEQIEDEIK (UniProt P26639),0.326,0.169
TBL3_Q12788_41+43_AQLDQTGQHLFCVCGTR (UniProt Q12788),-0.0435,0.0935
TBC1D1_Q86TI0_676_ACDSSSR (UniProt Q86TI0),0.525,0.352
TBL3_Q12788_129_AIHTAPVATMAFDPTSTLLATGGCDGAVR (UniProt Q12788),0.199,0.256
TAF5L_O75529_431_IYAGHLADVDCVK (UniProt O75529),0.0455,0.105
TBC1D13_Q9NVG8_204_NSVPSSLNEYEVLPNGCEAHWEVVER (UniProt Q9NVG8),0.164,-0.0677
SYNRG_Q9UMZ2_625_NPLNLADLDMFSSVNCSSEK (UniProt Q9UMZ2),-0.0694,-0.221
TARS_P26639_630_QVMVVPVGPTCDEYAQK (UniProt P26639),-0.135,-0.0844
SYK_P43405_259_VLTVPCQK (UniProt P43405),0.0293,0.0389
TARS_P26639_261_CGPLIDLCR (UniProt P26639),0.193,-0.0116
TARS2_Q9BW92_233_VTGPTATVYGCGTLVDLCQGPHLR (UniProt Q9BW92),0.288,0.266
TATDN1_Q6P1N9_113_VVAIGECGLDFDR (UniProt Q6P1N9),0.129,0.0504
TBCD_Q9BTW9_1075_LLALCK (UniProt Q9BTW9),0.0903,0.209
SYTL4_Q96C24_596_LEDLQHMCLELTVWDREPLASNDFLGGVR (UniProt Q96C24),0.0234,0.105
TBCB_Q99426_51_LELLVGSPASCMELELYGVDDK (UniProt Q99426),0.169,0.0105
TBL1XR1_Q9BZK7_434_LWDVDRGICIHTLTK (UniProt Q9BZK7),-0.327,-0.0418
TBC1D10A_Q9BXI6_324_ACQGQYETIER (UniProt Q9BXI6),-0.013,-0.14
SZT2_Q5T011_1152_LAACGLEGPPQEETKPK (UniProt Q5T011),-0.0486,-0.226
